Test results from the supplement of paper PMC10849652.
Some of the results follow.

Chains of the proteins cited; added tags and fusions are not shown. Lines headed by an entry give the natural chain unless they say otherwise; changes in a name come on top.
UniProt Q8WUK0: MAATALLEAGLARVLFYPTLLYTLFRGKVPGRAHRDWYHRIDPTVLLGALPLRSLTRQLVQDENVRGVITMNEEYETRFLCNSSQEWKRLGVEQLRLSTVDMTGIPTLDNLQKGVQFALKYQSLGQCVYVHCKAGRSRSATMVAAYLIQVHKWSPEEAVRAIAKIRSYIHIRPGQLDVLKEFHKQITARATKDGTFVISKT
UniProt Q9H3S7: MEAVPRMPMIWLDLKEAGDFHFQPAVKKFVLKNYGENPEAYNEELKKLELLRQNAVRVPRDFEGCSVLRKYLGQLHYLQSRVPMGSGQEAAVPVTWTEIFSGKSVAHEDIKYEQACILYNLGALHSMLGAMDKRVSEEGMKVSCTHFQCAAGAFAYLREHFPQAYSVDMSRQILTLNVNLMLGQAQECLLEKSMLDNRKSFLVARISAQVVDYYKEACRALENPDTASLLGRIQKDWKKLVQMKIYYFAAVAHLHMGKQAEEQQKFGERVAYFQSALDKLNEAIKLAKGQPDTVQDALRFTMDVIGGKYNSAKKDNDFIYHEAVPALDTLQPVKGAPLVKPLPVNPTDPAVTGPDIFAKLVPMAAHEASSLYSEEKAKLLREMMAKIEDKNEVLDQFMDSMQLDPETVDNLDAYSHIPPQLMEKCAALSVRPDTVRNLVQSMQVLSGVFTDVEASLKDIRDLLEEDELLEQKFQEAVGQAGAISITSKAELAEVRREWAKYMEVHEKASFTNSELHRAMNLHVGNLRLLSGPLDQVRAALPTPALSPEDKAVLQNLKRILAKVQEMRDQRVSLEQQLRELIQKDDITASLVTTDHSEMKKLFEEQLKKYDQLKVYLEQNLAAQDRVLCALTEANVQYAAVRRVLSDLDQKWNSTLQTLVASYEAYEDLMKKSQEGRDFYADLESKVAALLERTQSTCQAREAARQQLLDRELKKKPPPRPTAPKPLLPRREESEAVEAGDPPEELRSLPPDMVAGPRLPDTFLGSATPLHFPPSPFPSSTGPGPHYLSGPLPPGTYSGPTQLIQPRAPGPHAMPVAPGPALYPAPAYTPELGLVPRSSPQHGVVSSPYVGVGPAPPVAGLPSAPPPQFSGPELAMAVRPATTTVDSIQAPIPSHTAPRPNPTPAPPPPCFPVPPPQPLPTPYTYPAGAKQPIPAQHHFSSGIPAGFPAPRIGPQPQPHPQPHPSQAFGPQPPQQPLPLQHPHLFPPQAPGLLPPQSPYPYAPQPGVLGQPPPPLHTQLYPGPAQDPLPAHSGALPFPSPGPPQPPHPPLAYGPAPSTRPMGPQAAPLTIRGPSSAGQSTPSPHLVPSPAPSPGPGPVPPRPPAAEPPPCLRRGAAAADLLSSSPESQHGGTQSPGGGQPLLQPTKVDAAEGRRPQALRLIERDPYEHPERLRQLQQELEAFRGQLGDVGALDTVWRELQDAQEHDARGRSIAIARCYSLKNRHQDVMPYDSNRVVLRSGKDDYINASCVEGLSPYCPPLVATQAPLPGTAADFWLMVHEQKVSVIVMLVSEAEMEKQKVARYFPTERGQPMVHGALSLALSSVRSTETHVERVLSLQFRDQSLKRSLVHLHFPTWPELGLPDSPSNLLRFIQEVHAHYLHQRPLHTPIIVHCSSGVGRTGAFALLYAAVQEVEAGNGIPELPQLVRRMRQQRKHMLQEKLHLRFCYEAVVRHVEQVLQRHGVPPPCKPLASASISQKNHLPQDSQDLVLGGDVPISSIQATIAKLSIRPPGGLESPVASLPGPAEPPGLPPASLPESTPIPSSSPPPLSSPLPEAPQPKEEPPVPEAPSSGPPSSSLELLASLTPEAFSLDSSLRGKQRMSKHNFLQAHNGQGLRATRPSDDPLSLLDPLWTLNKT
UniProt P51665: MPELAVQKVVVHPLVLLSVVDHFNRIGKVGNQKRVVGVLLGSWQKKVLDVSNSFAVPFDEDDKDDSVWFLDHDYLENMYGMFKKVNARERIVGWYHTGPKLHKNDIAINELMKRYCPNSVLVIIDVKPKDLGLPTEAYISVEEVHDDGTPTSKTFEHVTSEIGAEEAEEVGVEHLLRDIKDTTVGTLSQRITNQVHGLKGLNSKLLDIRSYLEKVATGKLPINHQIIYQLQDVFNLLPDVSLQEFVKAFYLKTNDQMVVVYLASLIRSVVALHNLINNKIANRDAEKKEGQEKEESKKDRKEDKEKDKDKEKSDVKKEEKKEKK
UniProt O00391: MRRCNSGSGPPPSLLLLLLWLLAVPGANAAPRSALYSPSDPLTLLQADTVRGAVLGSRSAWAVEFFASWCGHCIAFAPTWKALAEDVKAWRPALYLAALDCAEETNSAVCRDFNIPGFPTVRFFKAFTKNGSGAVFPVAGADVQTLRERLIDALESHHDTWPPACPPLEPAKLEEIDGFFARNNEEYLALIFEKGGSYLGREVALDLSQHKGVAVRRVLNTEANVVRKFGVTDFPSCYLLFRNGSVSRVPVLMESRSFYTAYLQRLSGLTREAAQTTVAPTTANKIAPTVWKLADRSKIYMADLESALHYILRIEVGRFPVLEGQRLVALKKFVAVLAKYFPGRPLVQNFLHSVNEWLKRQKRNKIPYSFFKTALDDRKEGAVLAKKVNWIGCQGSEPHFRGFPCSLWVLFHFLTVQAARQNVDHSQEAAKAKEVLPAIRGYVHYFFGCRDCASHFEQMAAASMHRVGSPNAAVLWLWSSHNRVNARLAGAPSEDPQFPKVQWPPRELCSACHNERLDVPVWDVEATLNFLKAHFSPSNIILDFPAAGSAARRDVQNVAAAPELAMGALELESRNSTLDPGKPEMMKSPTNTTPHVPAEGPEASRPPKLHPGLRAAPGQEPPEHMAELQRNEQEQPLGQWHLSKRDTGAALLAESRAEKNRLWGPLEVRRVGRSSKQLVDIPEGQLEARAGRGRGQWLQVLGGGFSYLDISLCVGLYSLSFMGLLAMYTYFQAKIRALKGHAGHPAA
UniProt P48556: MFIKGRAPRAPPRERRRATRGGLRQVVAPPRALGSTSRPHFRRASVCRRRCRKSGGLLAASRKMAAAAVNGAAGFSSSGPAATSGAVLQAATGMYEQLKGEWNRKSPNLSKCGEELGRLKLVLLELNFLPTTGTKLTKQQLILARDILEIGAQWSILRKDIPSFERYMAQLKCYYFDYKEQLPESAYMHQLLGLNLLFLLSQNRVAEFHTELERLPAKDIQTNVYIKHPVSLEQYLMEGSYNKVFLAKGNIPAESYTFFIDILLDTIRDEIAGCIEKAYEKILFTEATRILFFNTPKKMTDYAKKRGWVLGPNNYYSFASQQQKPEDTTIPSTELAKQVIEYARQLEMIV
UniProt Q8WU10: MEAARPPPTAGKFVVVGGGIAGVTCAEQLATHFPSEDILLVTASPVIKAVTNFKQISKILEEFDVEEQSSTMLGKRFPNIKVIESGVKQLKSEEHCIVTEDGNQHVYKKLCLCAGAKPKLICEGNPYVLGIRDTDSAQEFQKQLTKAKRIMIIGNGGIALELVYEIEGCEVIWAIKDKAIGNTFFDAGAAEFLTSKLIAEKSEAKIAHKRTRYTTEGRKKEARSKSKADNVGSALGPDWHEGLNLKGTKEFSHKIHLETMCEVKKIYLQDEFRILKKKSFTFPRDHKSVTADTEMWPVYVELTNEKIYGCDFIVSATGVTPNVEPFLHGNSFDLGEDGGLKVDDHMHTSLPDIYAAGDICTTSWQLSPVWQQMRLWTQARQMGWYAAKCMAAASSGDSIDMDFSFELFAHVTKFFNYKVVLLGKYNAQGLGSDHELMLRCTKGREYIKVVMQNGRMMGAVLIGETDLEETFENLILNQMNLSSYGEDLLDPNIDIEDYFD
UniProt Q9H0R6: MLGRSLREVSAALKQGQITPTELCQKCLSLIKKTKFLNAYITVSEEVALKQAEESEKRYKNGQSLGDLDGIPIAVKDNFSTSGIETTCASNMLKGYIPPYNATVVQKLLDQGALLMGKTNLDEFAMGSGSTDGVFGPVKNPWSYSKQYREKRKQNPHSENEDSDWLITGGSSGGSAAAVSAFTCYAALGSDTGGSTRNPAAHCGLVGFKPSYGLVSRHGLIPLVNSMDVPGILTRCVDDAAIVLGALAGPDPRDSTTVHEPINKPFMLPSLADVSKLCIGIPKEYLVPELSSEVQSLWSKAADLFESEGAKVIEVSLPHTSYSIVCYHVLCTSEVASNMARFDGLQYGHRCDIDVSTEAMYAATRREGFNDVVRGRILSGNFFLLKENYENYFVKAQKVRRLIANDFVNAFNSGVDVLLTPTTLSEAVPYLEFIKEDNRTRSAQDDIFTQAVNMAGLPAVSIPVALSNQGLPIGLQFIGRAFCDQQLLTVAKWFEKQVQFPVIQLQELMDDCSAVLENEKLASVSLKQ
UniProt P28074: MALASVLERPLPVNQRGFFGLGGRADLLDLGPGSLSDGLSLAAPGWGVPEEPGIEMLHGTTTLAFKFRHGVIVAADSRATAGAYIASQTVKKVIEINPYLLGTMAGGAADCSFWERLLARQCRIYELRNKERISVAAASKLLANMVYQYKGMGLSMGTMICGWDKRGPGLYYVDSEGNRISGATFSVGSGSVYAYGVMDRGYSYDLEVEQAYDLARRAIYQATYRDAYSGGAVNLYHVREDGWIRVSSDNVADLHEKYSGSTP
UniProt Q13332: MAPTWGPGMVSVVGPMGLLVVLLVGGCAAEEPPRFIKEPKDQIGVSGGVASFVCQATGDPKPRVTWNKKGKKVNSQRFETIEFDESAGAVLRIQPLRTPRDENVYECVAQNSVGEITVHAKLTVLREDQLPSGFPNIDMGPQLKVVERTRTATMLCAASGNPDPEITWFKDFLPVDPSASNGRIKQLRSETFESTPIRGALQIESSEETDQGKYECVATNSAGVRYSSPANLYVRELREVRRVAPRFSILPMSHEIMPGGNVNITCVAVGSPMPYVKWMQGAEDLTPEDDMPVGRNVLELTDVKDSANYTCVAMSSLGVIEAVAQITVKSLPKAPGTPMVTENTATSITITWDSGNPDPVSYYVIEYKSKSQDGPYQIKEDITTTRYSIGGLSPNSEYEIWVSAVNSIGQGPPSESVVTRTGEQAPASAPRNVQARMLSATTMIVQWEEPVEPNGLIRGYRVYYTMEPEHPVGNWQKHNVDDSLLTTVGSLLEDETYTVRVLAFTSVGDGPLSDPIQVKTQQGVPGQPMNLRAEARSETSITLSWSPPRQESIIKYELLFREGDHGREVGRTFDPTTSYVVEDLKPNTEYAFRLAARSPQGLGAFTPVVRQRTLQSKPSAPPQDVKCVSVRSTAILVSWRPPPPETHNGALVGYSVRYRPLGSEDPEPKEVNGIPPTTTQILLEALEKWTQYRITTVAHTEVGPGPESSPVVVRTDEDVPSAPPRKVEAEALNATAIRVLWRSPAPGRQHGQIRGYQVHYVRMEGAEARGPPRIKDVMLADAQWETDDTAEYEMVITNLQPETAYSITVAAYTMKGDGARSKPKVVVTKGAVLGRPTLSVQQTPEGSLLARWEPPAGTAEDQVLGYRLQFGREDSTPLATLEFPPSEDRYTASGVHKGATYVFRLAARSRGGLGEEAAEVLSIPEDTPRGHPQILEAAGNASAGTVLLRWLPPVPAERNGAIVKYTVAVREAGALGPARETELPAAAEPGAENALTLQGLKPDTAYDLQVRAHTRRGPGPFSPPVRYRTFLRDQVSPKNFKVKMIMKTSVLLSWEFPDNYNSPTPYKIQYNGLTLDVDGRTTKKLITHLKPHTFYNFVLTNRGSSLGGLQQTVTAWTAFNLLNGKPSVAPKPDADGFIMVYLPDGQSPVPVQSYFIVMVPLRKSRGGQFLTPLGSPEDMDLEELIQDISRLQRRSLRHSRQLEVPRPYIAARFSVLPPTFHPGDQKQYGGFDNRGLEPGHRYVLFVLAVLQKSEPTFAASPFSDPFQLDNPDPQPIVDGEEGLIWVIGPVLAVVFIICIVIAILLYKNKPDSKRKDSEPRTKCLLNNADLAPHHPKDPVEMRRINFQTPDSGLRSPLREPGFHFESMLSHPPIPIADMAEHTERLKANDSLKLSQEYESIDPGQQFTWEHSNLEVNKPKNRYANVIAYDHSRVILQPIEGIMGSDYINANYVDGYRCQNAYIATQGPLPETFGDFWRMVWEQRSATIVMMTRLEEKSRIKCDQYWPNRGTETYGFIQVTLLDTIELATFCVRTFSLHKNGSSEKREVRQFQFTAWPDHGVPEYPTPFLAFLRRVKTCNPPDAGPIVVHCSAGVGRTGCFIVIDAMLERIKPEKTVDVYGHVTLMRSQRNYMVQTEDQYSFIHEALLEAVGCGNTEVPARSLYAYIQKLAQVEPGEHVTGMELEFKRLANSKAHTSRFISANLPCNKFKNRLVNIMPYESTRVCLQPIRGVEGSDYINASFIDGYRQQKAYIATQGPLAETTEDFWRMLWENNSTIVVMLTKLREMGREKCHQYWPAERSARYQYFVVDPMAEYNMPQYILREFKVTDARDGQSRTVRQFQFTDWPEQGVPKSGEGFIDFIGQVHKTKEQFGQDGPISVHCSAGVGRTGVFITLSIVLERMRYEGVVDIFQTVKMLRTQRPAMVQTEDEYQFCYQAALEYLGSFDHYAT

What was measured:
Assay in all cases: log2 fold change, soluble protein after heating vs DMSO (PISA); higher = thermal stabilisation; K562 cells, 10 uM, 30 min; active = over 0.2 and 3.5 SD of the protein, either way, in both replicates (recomputed)
[1] = compound: CC1=C(C=C(C=C1)NC(=O)C2=CC(=CC=C2)C(C)(C)C#N)NC3=CC4=C(C=C3)N=CN(C4=O)C
Summary of the method: (§1)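 Thermal stability values are relative to control samples and come from duplicates. They are expressed as log2 fold changes. For measurement, K562 cells (2×10^6 cells/mL) received 10 μM compound for 30 min, and aliquots were heated for 3 min over 48°C-58°C, pooled, and extracted at 4°C in PBS with 0.5% NP-40. Soluble protein, the supernatant after 21,000xg for 90 min, was quantified by TMTpro 16plex LC-MS/MS with equalised channel sums.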

[2] = compound: CC1=C(C=C(C=C1)NC(=O)C2=CC(=CC=C2)N(C)C)NC(=O)C3=CC=C(C=C3)O
Summary of the method: as §1

[3] = compound: CC1=CC=C(C=C1)SC2=C3C=C(SC3=CN=C2)C(=O)N
Summary of the method: as §1

[4] = compound: CC1=NC(=CC=C1)C2=C(N=C(N2)C(C)(C)C)C3=CC4=NC=CN=C4C=C3
Summary of the method: as §1

Nexturastat A = compound: CCCCN(Cc1ccc(C(=O)NO)cc1)C(=O)Nc1ccccc1 [Nexturastat A]
Summary of the method: as §1

vemurafenib = compound: CCCS(=O)(=O)Nc1ccc(F)c(C(=O)c2c[nH]c3ncc(-c4ccc(Cl)cc4)cc23)c1F [vemurafenib]
Summary of the method: as §1

[5] = compound: CCCS(=O)(=O)Nc1ccc(F)c(C(=O)c2c[nH]c3ncc(Cl)cc23)c1F
Summary of the method: as §1

[6] = compound: CCCc1cc(C)[nH]c(=O)c1CNC(=O)c1cc(-c2ccnc(N3CCN(C)CC3)c2)cc2c1cnn2C(C)C
Summary of the method: as §1

givinostat = compound: CCN(CC)Cc1ccc2cc(COC(=O)Nc3ccc(C(=O)NO)cc3)ccc2c1 [givinostat]
Summary of the method: as §1

barasertib = compound: CCN(CCCOc1ccc2c(Nc3cc(CC(=O)Nc4cccc(F)c4)[nH]n3)ncnc2c1)CCOP(=O)(O)O [barasertib]
Summary of the method: as §1

[7] = compound: CC[C@@H]1C(=O)N(C)c2cnc(Nc3ccc(C(=O)NC4CCN(C)CC4)cc3OC)nc2N1C1CCCC1
Summary of the method: as §1

volasertib = compound: CC[C@@H]1C(=O)N(C)c2cnc(Nc3ccc(C(=O)N[C@H]4CC[C@H](N5CCN(CC6CC6)CC5)CC4)cc3OC)nc2N1C(C)C [volasertib]
Summary of the method: as §1

[8] = compound: CC[C@H](C)N1C=C(C2=C(C=C(C=C21)C3=CN=C(C=C3)N4CCNCC4)C(=O)NCC5=C(C=C(NC5=O)C)C)C
Summary of the method: as §1

epoxomicin = compound: CC[C@H](C)[C@@H](C(=O)N[C@@H]([C@@H](C)O)C(=O)N[C@@H](CC(C)C)C(=O)[C@]1(CO1)C)NC(=O)[C@H]([C@@H](C)CC)N(C)C(=O)C [epoxomicin]
Summary of the method: as §1

[9] = compound: CCn1cc(-c2ccnc3[nH]c(-c4cccc(CN(C)C)c4)cc23)c(-c2ccc(NC(=O)N(C)C)cc2)n1
Summary of the method: as §1

[10] = compound: CN(C)CC(=O)Nc1ccc2[nH]c(=O)c3ccccc3c2c1
Summary of the method: as §1

[11] = compound: CN1C2=C(C3=C1C(=O)N(N=C3)CC4=CC(=CC=C4)N)SC(=C2)S(=O)C
Summary of the method: as §1

[12] = compound: CN1CCC(CNc2ccc3ncc(-c4cccc(OC(F)(F)F)c4)n3n2)CC1
Summary of the method: as §1

[13] = compound: CCn1c(C(=O)N(C2CC2)C2CC2)cc2c3c(ncn3C)c(Nc3cc(C)n(C)n3)nc21
Summary of the method: as §1

rosiglitazone = compound: CN(CCOC1=CC=C(C=C1)C[C@H]2C(=O)NC(=O)S2)C3=CC=CC=N3 (racemic) [rosiglitazone]
Summary of the method: as §1

Measured: log2 fold change

PTPMT1 (UniProt Q8WUK0)
active: [12] -1.21
inactive: [1] 0.043 | [2] -0.019 | [3] 0.025 | [4] 0.025 | Nexturastat A -0.114 | vemurafenib -0.047 | [5] 0.031 | [6] -0.029 | givinostat -0.029 | barasertib 0.041 | [7] -0.298 | volasertib -0.127 | [8] 0.002 | epoxomicin 0.088 | [9] -0.051 | [10] 0.012 | [11] -0.006

PTPN11 isoform 1 (UniProt Q06124)
inactive: [1] 0.03 | [2] -0.022 | [3] 0.009 | [4] 0.014 | Nexturastat A -0.084 | vemurafenib 0.028 | [5] 0.013 | [6] -0.004 | givinostat -0.059 | barasertib 0.031 | [7] 0.014 | volasertib -0.05 | [8] 0.02 | epoxomicin 0.054 | [13] -0.018 | [9] -0.044 | [10] -0.012 | rosiglitazone 0.011 | [11] -0.064 | [12] -0.02

PTPN23 (UniProt Q9H3S7)
active: volasertib -0.453
inactive: [1] -0.062 | [2] -0.049 | [3] -0.009 | [4] 0.002 | Nexturastat A -0.015 | vemurafenib 0.025 | [5] 0.051 | [6] 0.088 | givinostat 0.107 | barasertib 0.047 | [7] -0.163 | [8] 0.019 | epoxomicin 0.013 | [9] -0.006 | [10] 0.073 | [11] 0.016 | [12] -0.106

PSMD7 (UniProt P51665)
inactive: [1] -0.011 | [2] -0.005 | [3] -0.047 | [4] -0.038 | Nexturastat A 0.145 | vemurafenib -0.073 | [5] -0.029 | [6] 0.045 | givinostat -0.03 | barasertib -0.05 | [7] 0.027 | volasertib 0.205 | [8] 0 | epoxomicin -0.236 | [9] 0.027 | [10] -0.019 | [11] 0.083 | [12] 0.06

QSOX1 (UniProt O00391)
inactive: [1] -0.035 | [2] 0.083 | [4] -0.037 | Nexturastat A -0.024 | vemurafenib -0.033 | [6] 0.037 | givinostat 0.031 | barasertib -0.021 | [7] 0.122 | [8] 0.002 | epoxomicin -0.117 | [13] -0.022 | [9] -0.01 | [10] 0.026 | rosiglitazone 0.042 | [11] 0.138 | [12] 0.119

Two entries picked at random from those above, as already listed:
PSMD7 (UniProt P51665)
inactive: [1] -0.011 | [2] -0.005 | [3] -0.047 | [4] -0.038 | Nexturastat A 0.145 | vemurafenib -0.073 | [5] -0.029 | [6] 0.045 | givinostat -0.03 | barasertib -0.05 | [7] 0.027 | volasertib 0.205 | [8] 0 | epoxomicin -0.236 | [9] 0.027 | [10] -0.019 | [11] 0.083 | [12] 0.06

QSOX1 (UniProt O00391)
inactive: [1] -0.035 | [2] 0.083 | [4] -0.037 | Nexturastat A -0.024 | vemurafenib -0.033 | [6] 0.037 | givinostat 0.031 | barasertib -0.021 | [7] 0.122 | [8] 0.002 | epoxomicin -0.117 | [13] -0.022 | [9] -0.01 | [10] 0.026 | rosiglitazone 0.042 | [11] 0.138 | [12] 0.119

Next records:

PSMD8 (UniProt P48556)
inactive: [1] 0.044 | [2] 0.047 | [3] -0.056 | [4] -0.045 | Nexturastat A 0.128 | vemurafenib -0.082 | [5] -0.073 | [6] 0.022 | givinostat -0.04 | barasertib -0.034 | [7] 0.054 | volasertib 0.25 | [8] -0.01 | [9] 0.039 | [10] -0.037 | [11] 0.035 | [12] 0.016
active: epoxomicin -0.286

PYROXD1 (UniProt Q8WU10)
inactive: [1] -0.374 | [2] -0.079 | [3] 0.178 | [4] 0.041 | Nexturastat A -0.117 | vemurafenib 0.13 | [5] 0.222 | [6] 0.058 | givinostat -0.083 | barasertib 0.014 | volasertib -0.079 | [8] -0.099 | epoxomicin -0.153 | [13] 0.07 | [10] 0.028 | rosiglitazone 0.015 | [11] 0.003

QRSL1 (UniProt Q9H0R6)
inactive: [1] -0.001 | [2] -0.079 | [3] 0.018 | [4] 0.041 | Nexturastat A -0.09 | vemurafenib 0.086 | [5] 0.061 | [6] 0.093 | givinostat 0.033 | barasertib 0.044 | [7] 0.044 | volasertib -0.167 | [8] 0.069 | epoxomicin 0.027 | [9] -0.029 | [10] 0.023 | [11] -0.053 | [12] -0.095

PSMB5 isoform 3 (UniProt P28074)
inactive: [1] -0.346 | [2] -0.013 | [3] -0.294 | Nexturastat A 0.126 | vemurafenib -0.477 | [5] -0.5 | barasertib 0.033 | [7] 0.268 | volasertib 0.118 | [10] -0.426 | rosiglitazone 0 | [11] 0.238

PUSL1 (UniProt Q8N0Z8)
inactive: [1] -0.048 | [2] -0.001 | Nexturastat A 0.17 | [6] -0.217 | givinostat 0.256 | [7] 0.096 | epoxomicin -0.186 | [13] 0.056 | [9] -0.048 | [12] -0.14

PTPRS (UniProt Q13332)
inactive: [1] 0.186 | [2] -0.105 | [4] -0.091 | Nexturastat A 0.076 | vemurafenib -0.472 | givinostat 0.047 | barasertib 0.114 | [8] 0.031 | epoxomicin -0.096 | [13] -0.036 | [9] 0.062 | [10] 0.371 | rosiglitazone -0.474 | [11] -0.135 | [12] 0.313
